Data: article PMC9114370
These are yes or no findings as the source states them, for the method shown. A result given as binding can be weak or reduced; the word gives no strength.

The chains behind the UniProt entries cited, without tags or fusion partners. Where a name states a change or a piece, a line headed by the entry shows the natural chain unless it says otherwise. Residues count along the entry.
UniProt Q13148, residues 1-102: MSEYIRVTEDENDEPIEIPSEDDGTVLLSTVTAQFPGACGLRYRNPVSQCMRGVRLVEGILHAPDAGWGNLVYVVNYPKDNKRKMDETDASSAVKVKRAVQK
UniProt P11021: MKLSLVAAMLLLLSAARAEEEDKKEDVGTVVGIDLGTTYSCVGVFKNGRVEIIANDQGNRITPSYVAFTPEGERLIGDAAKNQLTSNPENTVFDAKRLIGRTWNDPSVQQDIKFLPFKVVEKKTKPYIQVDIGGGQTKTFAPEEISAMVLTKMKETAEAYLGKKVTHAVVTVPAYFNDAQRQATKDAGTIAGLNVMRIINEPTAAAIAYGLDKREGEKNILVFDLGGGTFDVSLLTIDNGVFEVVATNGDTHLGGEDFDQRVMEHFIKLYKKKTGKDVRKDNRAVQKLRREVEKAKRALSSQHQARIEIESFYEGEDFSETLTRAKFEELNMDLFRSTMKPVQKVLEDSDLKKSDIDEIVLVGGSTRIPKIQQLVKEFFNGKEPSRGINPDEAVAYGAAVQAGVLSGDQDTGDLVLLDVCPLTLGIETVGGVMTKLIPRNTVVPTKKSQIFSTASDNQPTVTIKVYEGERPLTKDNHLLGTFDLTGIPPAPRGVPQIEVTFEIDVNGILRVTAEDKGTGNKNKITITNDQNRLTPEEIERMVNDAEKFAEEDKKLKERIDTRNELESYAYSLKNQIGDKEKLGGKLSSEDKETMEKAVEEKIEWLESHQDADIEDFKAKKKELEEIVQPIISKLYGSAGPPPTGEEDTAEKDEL

Biological target: TDP-43_(1–102) (human) (UniProt Q13148)
Test: MST; 50 nM labelled TDP-43 construct (RED-NTA labelling), ranging concentrations of Hsp70 SBD titrated, MST buffer, premium capillaries, 40% LED, medium MST power; no RNA; both purified

binding: binds
Substance: HspA5 substrate binding domain (SBD) (from UniProt P11021) (domain or fragment)
